# Assay results from PubChem BioAssay (EPA / NIEHS).
# By UniProt entry, the sequences of proteins in these tests, tags left out. Where a name states a change or a piece, a line headed by the entry shows the natural chain unless it says otherwise.
# UniProt Q96RI1: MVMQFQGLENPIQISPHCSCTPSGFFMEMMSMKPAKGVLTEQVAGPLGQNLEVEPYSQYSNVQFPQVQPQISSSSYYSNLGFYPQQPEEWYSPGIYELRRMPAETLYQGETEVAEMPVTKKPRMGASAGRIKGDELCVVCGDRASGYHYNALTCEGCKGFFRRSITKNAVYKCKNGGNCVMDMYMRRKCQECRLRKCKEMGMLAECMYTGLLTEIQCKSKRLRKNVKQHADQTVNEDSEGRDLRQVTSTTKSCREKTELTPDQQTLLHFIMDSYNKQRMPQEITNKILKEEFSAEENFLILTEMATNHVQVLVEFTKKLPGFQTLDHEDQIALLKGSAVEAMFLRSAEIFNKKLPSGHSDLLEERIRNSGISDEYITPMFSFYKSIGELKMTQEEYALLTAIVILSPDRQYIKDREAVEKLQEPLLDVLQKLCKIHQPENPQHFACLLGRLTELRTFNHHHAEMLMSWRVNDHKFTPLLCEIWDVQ
# Inconclusive means that the source gave no clear call. Such entries were picked first, then a sample of the others. Potencies of inconclusive entries are doubtful fits and often do not repeat. Activity calls are given as the source filed them. Rule for the calls: active = hit-call score of the fitted dose curve at least 0.9, where 1 is the maximum; inconclusive = response in the unintended direction; inactive = score below 0.9.
# Biological target: Bile acid receptor (Homo sapiens) (UniProt Q96RI1)
# Experiment: NVS_NR_hFXR_Antagonist: NovaScreen (NVS) Nuclear Receptor Binding Assay for human Farnesoid X Receptor Antagonism (FXR) (AID 2283350)
# Protocol: NVS_NR_hFXR_Antagonist is a biochemical, single-readout assay that uses extracted gene-proteins in a cell-free assay. Measurements were taken 1 hour after chemical dosing in a 384-well plate.NVS_NR_hFXR_Antagonist is one of one assay component(s) measured or calculated from the NVS_NR_hFXR_Antagonist assay. It is designed to make measurements of fluorescent resonance energy transfer, a form of binding reporter, as detected with fluorescent resonance energy transfer signals by Time-Resolved Fluorescence Resonance Energy Transfer (TR-FRET) technology.Data from the assay component NVS_NR_hFXR_Antagonist was analyzed into 1 assay endpoint. This assay endpoint, NVS_NR_hFXR_Antagonist, was analyzed in the positive analysis fitting direction relative to DMSO as the negative control and baseline of activity. Using a type of binding reporter, loss-of-signal activity can be used to understand changes in the binding as they relate to the gene NR1H4. Furthermore, this assay endpoint can be referred to as a primary readout, because the performed assay has only produced 1 assay endpoint. To generalize the intended target to other relatable targets, this assay endpoint is annotated to the nuclear receptor intended target family, where the subfamily is non-steroidal.
# Binding assays used specific radioligands (tritiated, iodinated) with non-radioactive competitive displacement ligands in agonist or antagonist protocols (as indicated) and various reference compounds and inhibitors to titrate specific binding to receptors and transporters. Most enzyme assays (CYPs, kinases, phosphatases, proteases, HDACs) used recombinant protein and specific substrates (fluorescence mostly, some colorimetric and radioactive) and inhibitors, followed by a biochemical separation of substrate and product. All assays for the biochemical HTS were initially run in duplicate at a single concentration (10 uM for CYP450 assays and 25 uM for all others). […] Each assay was run with positive and negative controls, and concurrent controls on every plate. The follow-up (secondary) screen tested active chemical-pairs in concentration series, as well as a few additional assays not tested in the primary screen, some selected negative inactives, and several cases re-run in the concentration series for confirmatory purposes.
Structure (SMILES),AC50,outcome
CC(C)N(C(=O)SCC(Cl)=C(Cl)Cl)C(C)C,inconclusive: 25 µM,
CC(COc1ccc(Oc2ccccc2)cc1)Oc1ccccn1 (stereo unspecified),active: 6.89 µM,
O=C(Nc1ccccc1)Nc1ccnc(Cl)c1,inconclusive: 0.139 µM,
CCOP(=O)(OCC)Oc1cc(C)nc(C(C)C)n1,,inactive
CC(C)C1(C)N=C(c2nc3ccccc3cc2C(=O)O)NC1=O (stereo unspecified),,inactive
ClCCOCCCl,inconclusive: 1.52 µM,
COCC(=O)N(c1c(C)cccc1C)C(C)C(=O)OC (stereo unspecified),inconclusive: 0.0518 µM,
CCCCC(CC)COC(=O)c1ccccc1C(=O)OCC(CC)CCCC (stereo unspecified),inconclusive: 10.9 µM,
COC(=O)N(OC)c1ccccc1COc1ccn(-c2ccc(Cl)cc2)n1,inconclusive: 0.876 µM,
CCN(CC)N=O,inconclusive: 25 µM,
[Cl-].[Cl-].[Hg+2],,inactive
CCOC(=O)CC(SP(=O)(OC)OC)C(=O)OCC (stereo unspecified),inconclusive: 6.74 µM,
CC(C)=CC1C(C(=O)OCc2coc(Cc3ccccc3)c2)C1(C)C (stereo unspecified),inconclusive: 25 µM,
COC(=O)c1ccccc1S(=O)(=O)NC(=O)Nc1nc(C)nc(OC)n1,,inactive
CC(C)C1(C)N=C(c2ncccc2C(=O)O)NC1=O (stereo unspecified),,inactive
CCCC1COC(Cn2cncn2)(c2ccc(Cl)cc2Cl)O1 (stereo unspecified),inconclusive: 0.126 µM,

# Reformatted: results already given.
Structure (SMILES)	AC50	outcome
CCOP(=O)(OCC)Oc1cc(C)nc(C(C)C)n1		inactive
[Cl-].[Cl-].[Hg+2]		inactive
